Test results from US5159061A (Takeda Chemical Industries, Ltd., priority 1986, dated 1992).
Strings that start with PEPTIDE1 are HELM notation: dots part the residues, brackets hold end groups and non-standard residues. [ ]: non-standard residue; d: D form. The star is where a group is joined. Tos = Cc1ccc(S(=O)(=O)*)cc1; Boc = CC(C)(C)OC(=O)*; OBn = c1ccc(CO*)cc1; Bn = c1ccc(C*)cc1

assay: general procedure: solution-phase peptide synthesis; HONB/DCC (ONB active esters); conditions: coupling step

| Substance | step yield [%] |
| --- | --- |
| Boc-Achc-Cys(MBzl)Phe-Gly-Gly-OH | 54.9 |
| Boc-Aib-Cys(MBzl)-Phe-Gly-Gly-Arg(Pme)-Leu-Asp(OBzl)-Arg(Pme)-Ile-Gly-Ala- Gln-Ser-Gly-Leu-Gly-Cys(MBzl)-Asn-Ser(Bzl)-Phe-Arg(Pme)-Tyr(Bzl)-OBzl | 84.4 |
| Boc-Aib-Cys(MBzl)-Phe-Gly-Gly-Arg(Pme)-Met-Asp(OBzl)-Arg(Pme)-Ile-Gly-Ala- Gln-Ser-Gly-Leu-Gly-Cys(MBzl)-Asn-Ser(Bzl)-Phe-Arg(Pme)-Tyr(Bzl)-OBzl | 82.3 |
| Boc-Aib-Cys(MBzl)-Phe-Gly-Gly-Arg(Pme)-Nle-Asp(OBzl)-Arg(Pme)-Ile-Gly-Ala- Gln-Ser-Gly-Leu-Gly-Cys(MBzl)-Asn-Ser(Bzl)-Phe-Arg(Pme)-Tyr(Bzl)-OBzl | 82.5 |
| Boc-Aib-Cys(MBzl)-Phe-Gly-Gly-OH | 69.8 |
| Boc-Ala-Cys(MBzl)-Phe-Gly-Gly-Arg(Pme)-Met-Asp(OBzl)-Arg(Pme)-Ile-Gly-Ala- Gln-Ser-Gly-Leu-Gly-Cys(MBzl)-Asn-Ser(Bzl)-Phe-Arg(Pme)-Tyr(Bzl)-OBzl | 95.3 |
| Boc-Ala-Cys(MBzl)-Phe-Gly-Gly-OH | 79.0 |
| Boc-Ala-Gin-Ser-Gly-Leu-Gly-Cys(MBzl)-Asn-Ser(Bzl)-Phe-Arg(Pme)-Tyr(Bzl)-OBzl | 87.1 |
| Boc-Ala-Gln-Ser-Gly-Leu-Gly-Cys(MBzl)-Asn-Ser(Bzl)-Phe-D-Arg(Tos)-Tyr(Bzl)-OBzl | 95.9 |
| Boc-Arg(Pme)-Ile-Asp(OBzl)-Arg(Pme)-Ile-Gly-Ala-Gln-Ser-Gly-Leu-Gly-Cys(MBzl)-Asn-Ser(Bzl)-Phe-Arg(Pme)-Tyr(Bzl)-OBzl | 84.7 |
| Boc-Arg(Pme)-Ile-Asp(OBzl)-Arg(Pme)-Ile-Gly-OH | 61.6 |
| Boc-Arg(Pme)-Leu-Asp(OBzl)-Arg(Pme)-Ile-Gly-OHI | 73.2 |
| Boc-Arg(Pme)-Met-Asp(OBzl)-Arg(Pme)-Ile-Gly-Ala-Gln-Ser-Gln-Leu-Gly-Cys(MBzl)-Asn-Ser(Bzl)-Phe-D-Arg(Tos)-Tyr(Bzl)-OBzl | 76.9 |
| Boc-Arg(Pme)-Met-Asp(OBzl)-Arg(Pme)-Ile-Gly-Ala-Gln-Ser-Gly-Leu-Gly-Cys(MBzl)-Asn-Ser(Bzl)-Phe-Arg(Pme)-Tyr(Bzl)-OBzl | 84.0 |
| Boc-Arg(Pme)-Met-Asp(OBzl)-Arg(Pme)-Ile-Gly-OH | 85.2 |
| Boc-Arg(Pme)-Nle-Asp(OBzl)-Arg(Pme)-Ile-Gly-OH | 73.2 |
| Boc-Asn-Ser(Bzl)-Phe-Arg(Pme)-Tyr(Bzl)-Obzl | 96.0 |
| Boc-Asp-(OBzl)-Arg(Pme)-Ile-Gly-OH.CHA | 64.3 |
| Boc-Cys(MBzl)-Asn-Ser(Bzl)-Phe-Arg(Pme)-Tyr(Bzl)-OBzl | 96.9 |
| Boc-Cys(MBzl)-Asn-Ser(Bzl)-Phe-D-Arg(Tos)-Tyr(Bzl)-OBzl | 92.9 |
| Boc-Cys(MBzl)-Phe-Ava-Arg(Pme)-Met-Asp(OBzl)-Arg(Pme)-Ile-Gly-Ala-Gln-Ser- Gly-Leu-Cys(MBzl)-Asn-Ser(Bzl)-Phe-Arg(Pme)-Tyr(Bzl)-OBzl | 97.3 |
| Boc-Cys(MBzl)-Phe-D-Ala-Gly-Arg(Pme)-Met-Asp(OBzl)-Arg(Pme)-Ile-Gly-Ala-Gln-Ser-Gly-Leu-Gly-Cys(MBzl)-Asn-Ser-Phe-Arg(Pme)-Tyr(Bzl)-OBzl | 83.8 |

| Substance | step yield [%] |
| --- | --- |
| Boc-Cys(MBzl)-Phe-D-Ala-Gly-OH | 38.9 |
| Boc-Cys(MBzl)-Phe-Gaba-Arg(Pme)-Met-Asp(OBzl)-Arg(Pme)-Ile-Gly-Ala-Gln-Ser-Gly-Leu-Gly-Cys(MBzl)-Asn-Ser(Bzl)-Phe-Arg(Pme)-Tyr(Bzl)-OBzl | 78.4 |
| Boc-Cys(MBzl)-Phe-Gly-Arg(Pme)-Met-Asp(OBzl)-Arg(Pme)-Ile-Gly-Ala-Gln-Ser- Gly-Leu-Gly-Cys(MBzl)-Asn-Ser(Bzl)-Phe-Arg(Pme)-Tyr(Bzl)-OBzl | 78.0 |
| Boc-Cys(MBzl)-Phe-Gly-Arg(Pme)-Met-Asp(OBzl)-Arg(Pme)-Ile-Gly-OH | 77.7 |
| Boc-Cys(MBzl)-Phe-Gly-Gly-Arg(Pme)-Met-Asp(OBzl)-Arg(Pme)-Ile-Gly-Ala-Gln- Ser-Gly-Leu-Gly-Cys(MBzl)-Asn-Ser(Bzl)-Phe-D-Arg(Tos)-Tyr(Bzl)-OBzl | 78.1 |
| Boc-Cys(MBzl)-Phe-Gly-Gly-OH | 69.1 |
| Boc-Cys(MBzl)-Phe-βAla-Arg(Pme)-Met-Asp(OBzl)-Arg(PME)-Ile-Gly-Ala-Gln-Ser-Gly-Leu-Gly-Cys(MBzl)-Asn-Ser(Bzl)-Phe-Arg(Pme)-Tyr(Bzl)-OBzl | 94.0 |
| Boc-D-Ala-Cys(MBzl)-Phe-Gly-Gly-Arg(Pme)-Met-Asp(OBzl)-Arg(Pme)-Ile-Gly-Ala-Gln-Ser-Gly-Leu-Gly-Cys(MBzl)-Asn-Ser(Bzl)-Phe-Arg(Pme)-Tyr(Bzl)-OBzl | 92.5 |
| Boc-DAla-Cys(MBzl)-Phe-Gly-Gly-OH | 76.0 |
| Boc-Gly-Arg(Pme)-Met-Asp(OBzl)-Arg(Pme)-Ile-Gly-OH | 94.8 |
| Boc-Ile-Asp(OBzl)-Arg(Pme)-Ile-Gly-OH | 82.0 |
| Boc-Ile-Cys(MBzl)-Phe-Gly-Gly-Arg(Pme)-Met-Asp(OBzl)-Arg(Pme)-Ile-Gly-Ala- Gln-Ser-Gly-Leu-Gly-Cys(MBzl)-Asn-Ser(Bzl)-Phe-Arg(Pme)-Tyr(Bzl)-OBzl | 95.2 |
| Boc-Ile-Cys(MBzl)-Phe-Gly-Gly-OH | 83.0 |
| Boc-Leu-asp(OBzl)-Arg(Pme)-Ile-Gly-OH | 87.8 |
| Boc-NS(Bn)F[dR](Tos)Y(Bn)-OBn | 86.6 |
| Boc-Nle-Asp(OBzl)-Arg(Pme)-Ile-Gly-OH | 97.0 |
| Boc-Phe-Gly-Arg(Pme)-Met-Asp(OBzl)-Arg(Pme)-Ile-Gly-OH | 76.3 |
| Boc-S(Bn)GLG-OBn | 78.3 |
| Boc-Ser(Bzl)-Phe-Arg(Pme)-Tyr(Bzl)-OBzl | 94.4 |
| Boc-Val-Cys(MBzl)-Phe-Gly-Gly-Arg(Pme)-Met-Asp(OBzl)-Arg(Pme)-Ile-Gly-Ala- Gln-Ser-Gly-Leu-Gly-Cys(MBzl)-Asn-Ser(Bzl)-Phe-Arg(Pme)-Tyr(Bzl)-OBzl | 9.2 |
| Boc-Val-Cys(MBzl)-Phe-Gly-Gly-OH | 92.7 |

same assay, conditions: late stage modification step

| Substance | step yield [%] |
| --- | --- |
| Boc-AQSGLG-OH | 94.3 |

same assay, conditions: oxidative folding step

| Substance | oxidative folding yield [%] |
| --- | --- |
| PEPTIDE1{[Aib].C.F.G.G.R.M.D.R.I.G.A.Q.S.G.L.G.C.N.S.F.R.Y}$PEPTIDE1,PEPTIDE1,2:R3-18:R3$$$V2.0 | 12 |
| [Aib^6, Leu^12 ]α-hANP[6-28] | 22 |
| [Aib^6, Nle^12 ]-α-hANP[6-28] | 14.4 |
| [βAla^9, des Gly^10 ]-α-hANP[7-28] | 17 |
